Earlier results as cited in paper PMC10041529 (Journal of Medicinal Chemistry, 2023).

Test system: 235 kinases
Design: method as in PMID 21870818
Conditions: at 500 nM, of 235 kinases tested; cited from earlier work

## O=C(O)c1ccc2c(c1)nc(Nc1cccc(Cl)c1)c1ccncc12 [CX-4945, 5-(3-Chlorophenylamino)benzo[c][2,6]naphthyridine-8-carboxylic Acid]
  number of kinases inhibited by more than 90%: 10
  number of kinases whose activity was affected by more than 50%: 49
